Test results taken from the supplement of paper PMC10849652.
This is one part of the list.

Amino acid sequences for entries named in this document (tags omitted). A change or cut given only in a name is not applied to a line headed by its entry.
UniProt P78347: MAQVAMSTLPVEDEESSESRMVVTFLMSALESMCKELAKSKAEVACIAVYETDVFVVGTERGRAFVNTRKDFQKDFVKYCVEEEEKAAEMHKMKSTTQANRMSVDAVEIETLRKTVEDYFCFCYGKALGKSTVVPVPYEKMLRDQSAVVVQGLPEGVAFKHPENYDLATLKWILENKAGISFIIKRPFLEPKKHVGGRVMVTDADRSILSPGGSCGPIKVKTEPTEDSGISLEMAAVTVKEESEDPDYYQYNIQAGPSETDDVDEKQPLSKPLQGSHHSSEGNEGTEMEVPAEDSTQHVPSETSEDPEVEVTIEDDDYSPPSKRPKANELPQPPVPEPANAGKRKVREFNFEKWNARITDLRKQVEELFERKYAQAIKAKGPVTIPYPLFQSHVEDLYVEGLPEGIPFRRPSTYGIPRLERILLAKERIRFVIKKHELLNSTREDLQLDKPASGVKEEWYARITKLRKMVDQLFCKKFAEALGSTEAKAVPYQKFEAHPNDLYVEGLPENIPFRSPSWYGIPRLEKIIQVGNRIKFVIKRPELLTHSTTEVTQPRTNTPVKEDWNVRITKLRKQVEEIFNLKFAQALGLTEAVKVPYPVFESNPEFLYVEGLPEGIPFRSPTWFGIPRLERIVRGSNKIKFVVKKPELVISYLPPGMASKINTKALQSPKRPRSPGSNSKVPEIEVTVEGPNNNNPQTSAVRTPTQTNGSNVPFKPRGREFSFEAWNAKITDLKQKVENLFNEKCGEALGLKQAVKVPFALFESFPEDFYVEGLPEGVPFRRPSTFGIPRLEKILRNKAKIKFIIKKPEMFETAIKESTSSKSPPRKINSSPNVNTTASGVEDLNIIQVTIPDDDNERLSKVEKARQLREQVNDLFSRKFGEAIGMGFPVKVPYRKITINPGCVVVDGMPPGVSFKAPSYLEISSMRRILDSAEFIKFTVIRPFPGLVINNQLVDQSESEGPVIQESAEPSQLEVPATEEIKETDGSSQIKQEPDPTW
UniProt P49841: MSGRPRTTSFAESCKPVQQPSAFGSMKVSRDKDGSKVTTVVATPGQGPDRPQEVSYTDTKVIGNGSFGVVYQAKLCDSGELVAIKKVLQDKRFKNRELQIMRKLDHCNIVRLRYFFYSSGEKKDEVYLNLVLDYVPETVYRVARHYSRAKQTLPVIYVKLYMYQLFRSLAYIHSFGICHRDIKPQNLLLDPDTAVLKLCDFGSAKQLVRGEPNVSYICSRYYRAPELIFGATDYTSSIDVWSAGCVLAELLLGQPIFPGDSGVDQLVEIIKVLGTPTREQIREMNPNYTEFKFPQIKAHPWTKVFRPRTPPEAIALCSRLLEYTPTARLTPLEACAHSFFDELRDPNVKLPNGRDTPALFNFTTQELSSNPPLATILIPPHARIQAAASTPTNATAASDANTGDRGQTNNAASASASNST
UniProt Q8N4P3, whole entry, looked up: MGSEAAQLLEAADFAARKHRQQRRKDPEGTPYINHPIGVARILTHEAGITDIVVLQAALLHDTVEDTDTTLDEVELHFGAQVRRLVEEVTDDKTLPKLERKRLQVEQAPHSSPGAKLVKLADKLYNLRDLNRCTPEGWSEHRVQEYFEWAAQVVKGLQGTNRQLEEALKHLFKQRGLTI
UniProt P15170, whole entry, looked up: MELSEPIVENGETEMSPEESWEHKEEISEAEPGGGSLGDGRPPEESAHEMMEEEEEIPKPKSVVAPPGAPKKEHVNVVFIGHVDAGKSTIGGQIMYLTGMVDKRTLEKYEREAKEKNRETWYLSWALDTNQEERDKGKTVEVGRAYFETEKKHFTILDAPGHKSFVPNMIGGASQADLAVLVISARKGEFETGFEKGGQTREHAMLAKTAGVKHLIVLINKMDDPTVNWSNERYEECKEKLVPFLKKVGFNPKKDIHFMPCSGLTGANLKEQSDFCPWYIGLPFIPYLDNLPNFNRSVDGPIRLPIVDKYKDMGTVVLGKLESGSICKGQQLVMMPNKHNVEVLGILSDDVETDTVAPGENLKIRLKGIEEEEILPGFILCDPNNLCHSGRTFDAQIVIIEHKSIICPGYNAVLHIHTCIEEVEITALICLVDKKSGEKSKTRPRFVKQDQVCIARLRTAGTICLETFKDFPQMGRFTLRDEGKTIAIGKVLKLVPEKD
UniProt P52657, whole entry, looked up: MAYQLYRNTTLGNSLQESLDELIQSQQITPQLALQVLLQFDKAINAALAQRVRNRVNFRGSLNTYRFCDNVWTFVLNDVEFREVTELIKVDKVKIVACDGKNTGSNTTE
UniProt O14929: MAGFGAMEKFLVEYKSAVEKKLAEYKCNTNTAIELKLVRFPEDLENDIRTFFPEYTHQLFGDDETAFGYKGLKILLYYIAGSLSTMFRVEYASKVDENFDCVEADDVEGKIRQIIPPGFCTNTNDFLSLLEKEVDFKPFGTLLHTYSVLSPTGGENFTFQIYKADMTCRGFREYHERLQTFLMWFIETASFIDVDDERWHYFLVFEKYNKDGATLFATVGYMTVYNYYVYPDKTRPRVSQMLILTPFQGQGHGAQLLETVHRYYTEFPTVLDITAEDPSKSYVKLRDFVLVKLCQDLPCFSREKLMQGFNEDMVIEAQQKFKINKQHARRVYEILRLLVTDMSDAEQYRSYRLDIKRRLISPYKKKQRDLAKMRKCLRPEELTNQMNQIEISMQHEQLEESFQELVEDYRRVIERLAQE
UniProt Q16774: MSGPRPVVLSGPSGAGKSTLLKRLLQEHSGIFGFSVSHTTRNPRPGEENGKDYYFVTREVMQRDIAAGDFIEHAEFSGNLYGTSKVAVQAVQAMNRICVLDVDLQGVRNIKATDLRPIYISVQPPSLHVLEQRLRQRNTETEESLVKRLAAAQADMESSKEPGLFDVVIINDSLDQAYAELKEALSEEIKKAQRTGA
UniProt Q9UKN8: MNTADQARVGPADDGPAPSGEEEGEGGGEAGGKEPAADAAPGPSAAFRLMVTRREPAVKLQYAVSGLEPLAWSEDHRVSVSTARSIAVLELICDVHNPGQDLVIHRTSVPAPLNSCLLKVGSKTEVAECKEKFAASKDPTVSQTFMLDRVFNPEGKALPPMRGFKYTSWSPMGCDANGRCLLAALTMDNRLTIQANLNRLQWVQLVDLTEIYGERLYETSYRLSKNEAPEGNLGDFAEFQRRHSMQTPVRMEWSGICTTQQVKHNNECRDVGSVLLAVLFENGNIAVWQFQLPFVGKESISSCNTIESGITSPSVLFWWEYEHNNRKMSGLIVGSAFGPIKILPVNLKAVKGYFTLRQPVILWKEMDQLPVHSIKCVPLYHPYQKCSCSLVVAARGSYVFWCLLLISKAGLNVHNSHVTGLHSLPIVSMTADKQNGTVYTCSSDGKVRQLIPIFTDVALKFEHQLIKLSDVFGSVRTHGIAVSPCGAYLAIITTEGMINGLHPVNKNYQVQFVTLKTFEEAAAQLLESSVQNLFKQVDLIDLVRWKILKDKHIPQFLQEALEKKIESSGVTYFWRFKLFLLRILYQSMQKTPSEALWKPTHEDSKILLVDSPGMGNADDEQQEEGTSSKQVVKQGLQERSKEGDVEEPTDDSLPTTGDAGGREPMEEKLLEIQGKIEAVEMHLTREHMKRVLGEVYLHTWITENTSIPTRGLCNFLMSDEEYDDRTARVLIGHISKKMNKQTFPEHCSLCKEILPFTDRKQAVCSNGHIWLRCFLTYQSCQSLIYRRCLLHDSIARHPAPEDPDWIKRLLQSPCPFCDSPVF

Columns and labels:
Assay in all cases: log2 fold change, soluble protein after heating vs DMSO (PISA); higher = thermal stabilisation; K562 lysate, 10 uM; active = over 0.2 and 3.5 SD of the protein, either way, in both replicates (recomputed)
erlotinib = compound: C#Cc1cccc(Nc2ncnc3cc(OCCOC)c(OCCOC)cc23)c1 [erlotinib]
In short: (§1)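 Pellets of K562 cells were dounce-homogenised in PBS pH 7.4 with 1 mM MgCl2, and the crude extract was held at 1 mg/mL protein for a 30 min treatment with 10 μM compound. Aliquots were heated for 3 min over 48°C-58°C and pooled before NP-40 was added to 0.5% at 4°C. The supernatant from 21,000xg for 90 min was quantified by TMTpro 16plex LC-MS/MS with channel sums equalised. Values are reported from duplicates as log-two fold change in thermal stability relative to solvent controls.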

[1] = compound: C/C(=N\NC(=O)C1=CC(=CC=C1)S(=O)(=O)N2CCOCC2)/C3=C(C=CC(=C3)Cl)O
In short: as §1

[2] = compound: C1=CC(=CC=C1C2=NC3=C(N2)C=C(C=C3)C(=O)N)OC4=CC=C(C=C4)Cl
In short: as §1

[3] = compound: C1=CC2=C(C=CC(=C2)/C=C\3/C(=O)NC(=NCC4=CC=CS4)S3)N=C1
In short: as §1

[4] = compound: C1=CC2=NC=CN=C2C=C1/C=C/3\C(=O)NC(=O)S3
In short: as §1

[5] = compound: C1=CC=C(C=C1)C2=NC(=C(N2)C3=CC=NC=C3)C4=CC(=C(C=C4)Cl)O
In short: as §1

[6] = compound: C1=CC=C2C(=C1)C3=NNC4=CC=CC(=C43)C2=O
In short: as §1

[7] = compound: C1CCN(C1)C(=O)NC2=CC=CC(=C2)NC3=NC=C(C(=N3)NCCC4=CN=CN4)Br
In short: as §1

[8] = compound: C1CN(CCC1(CC2=CC=C(C=C2)Cl)N)C3=NC=NC4=C3C=CN4
In short: as §1

IRAK-1-4 Inhibitor I = compound: C1COCCN1CCN2C3=CC=CC=C3N=C2NC(=O)C4=CC(=CC=C4)[N+](=O)[O-] [IRAK-1-4 Inhibitor I]
In short: as §1

ibrutinib = compound: C=CC(=O)N1CCC[C@@H](n2nc(-c3ccc(Oc4ccccc4)cc3)c3c(N)ncnc32)C1 [ibrutinib]
In short: as §1

[9] = compound: CC(=O)c1cnc2ccc(-c3cc(Cl)c(O)c(Cl)c3)nc2c1N[C@H]1CC[C@H](CN(C)C)CC1
In short: as §1

ralimetinib = compound: CC(C)(C)Cn1c(N)nc2ccc(-c3[nH]c(C(C)(C)C)nc3-c3ccc(F)cc3)nc21 [ralimetinib]
In short: as §1

[10] = compound: CC(C)(O)CC(=O)NCCn1ccc2ncnc(Nc3ccc(Oc4cccc(C(F)(F)F)c4)c(Cl)c3)c21
In short: as §1

[11] = compound: CC(C)C1=C2N=C(C=C(N2N=C1)NCC3=CC=CC=C3)NCCCCCCN
In short: as §1

[12] = compound: CC1=C(C(CC(=O)N1)C2=CC=C(C=C2)C(F)(F)F)C(=O)NC3=C(C=C4C(=C3)C=NN4)F
In short: as §1

[13] = compound: CC1=C(C2=C(C=C1)C(=O)C3=CC=CC=C3N2CCCN)C
In short: as §1

[14] = compound: CC1=C(C=C(C=C1)NC(=O)C2=CC(=CC=C2)C(C)(C)C#N)NC3=CC4=C(C=C3)N=CN(C4=O)C
In short: as §1

[15] = compound: CC1=C(C=C(C=C1)NC(=O)C2=CC(=CC=C2)N(C)C)NC(=O)C3=CC=C(C=C3)O
In short: as §1

[16] = compound: CC1=CC=C(C=C1)SC2=C3C=C(SC3=CN=C2)C(=O)N
In short: as §1

Measured: log2 fold change

GTF2I (UniProt P78347)
inactive: erlotinib -0.005 | [1] 0.016 | [2] -0.02 | [3] 0.018 | [4] 0.008 | [5] -0.003 | [6] -0.034 | [7] -0.002 | [8] -0.031 | IRAK-1-4 Inhibitor I -0.007 | ibrutinib -0.004 | [9] -0.002 | ralimetinib 0.007 | [10] -0.004 | [11] 0.012 | [12] -0.007 | [13] 0.005 | [14] -0.027 | [15] 0.033 | [16] -0.001

GSK3B isoform 2 (UniProt P49841)
inactive: erlotinib 0.043 | [1] -0.323 | [2] 0.036 | [3] 0.145 | [4] 0.085 | [5] 0.459 | [6] 0.132 | [7] 0.202 | [8] -0.011 | IRAK-1-4 Inhibitor I -0.002 | ibrutinib -0.064 | [9] 0.344 | ralimetinib -0.012 | [10] -0.008 | [11] -0.016 | [12] -0.04 | [13] -0.006 | [14] -0.018 | [15] -0.029 | [16] 0.189

HDDC3 (UniProt Q8N4P3)
inactive: erlotinib -0.041 | [1] 0.002 | [2] 0.006 | [3] 0.003 | [4] -0.024 | [5] -0.049 | [6] -0.032 | [7] -0.009 | [8] -0.039 | IRAK-1-4 Inhibitor I -0.044 | ibrutinib 0.068 | [9] 0.057 | ralimetinib 0.072 | [10] 0.028 | [11] -0.005 | [12] 0.008 | [13] 0.01 | [14] -0.045 | [15] 0.011 | [16] 0.018

GSPT1 isoform 3 (UniProt P15170)
inactive: erlotinib 0.007 | [1] 0.033 | [2] 0 | [3] -0.012 | [4] -0.01 | [5] 0.02 | [6] 0.015 | [7] 0.022 | [8] -0.004 | IRAK-1-4 Inhibitor I 0.015 | ibrutinib 0.01 | [9] -0.01 | ralimetinib -0.026 | [10] 0.012 | [11] 0.015 | [12] -0.026 | [13] -0.008 | [14] -0.019 | [15] -0.02 | [16] 0

GTF2A2 (UniProt P52657)
inactive: erlotinib 0.016 | [1] -0.025 | [2] 0.019 | [3] -0.006 | [4] 0.009 | [5] -0.017 | [6] 0.029 | [7] -0.006 | [8] -0.01 | IRAK-1-4 Inhibitor I 0.017 | ibrutinib 0.041 | [9] 0.043 | ralimetinib 0.026 | [10] -0.032 | [11] -0.021 | [12] 0.008 | [13] 0 | [14] -0.004 | [15] -0.021 | [16] 0.015

HAT1 (UniProt O14929)
inactive: erlotinib 0.016 | [1] 0.001 | [2] 0.031 | [3] 0 | [4] -0.028 | [5] 0.004 | [6] -0.003 | [7] -0.023 | [8] 0.036 | IRAK-1-4 Inhibitor I 0.017 | ibrutinib -0.005 | [9] -0.015 | ralimetinib 0.021 | [10] -0.009 | [11] 0.005 | [12] 0.007 | [13] -0.004 | [14] 0.022 | [15] 0.014 | [16] -0.028

H4C1 (UniProt P62805)
inactive: erlotinib 0.065 | [1] 0.499 | [2] -0.023 | [3] -0.042 | [4] -0.024 | [5] 0.252 | [6] -0.008 | [7] 0.067 | [8] -0.052 | IRAK-1-4 Inhibitor I -0.067 | ibrutinib 0.055 | [9] -0.008 | ralimetinib -0.078 | [10] -0.037 | [11] -0.046 | [12] 0.075 | [13] -0.082 | [14] 0.011 | [15] -0.022 | [16] 0.008

GUK1 isoform 2 (UniProt Q16774)
inactive: erlotinib -0.013 | [1] 0.003 | [2] 0.029 | [3] -0.007 | [4] 0.002 | [5] 0.012 | [6] -0.02 | [7] -0.03 | [8] 0.004 | IRAK-1-4 Inhibitor I -0.025 | ibrutinib -0.038 | [9] 0.009 | ralimetinib -0.008 | [10] -0.037 | [11] -0.006 | [12] -0.007 | [13] 0.036 | [14] 0.011 | [15] 0.066 | [16] -0.075

GTF3C4 (UniProt Q9UKN8)
inactive: erlotinib -0.007 | [1] -0.069 | [2] 0.023 | [3] 0.001 | [4] 0.007 | [5] -0.006 | [6] -0.002 | [7] -0.013 | [8] 0.003 | IRAK-1-4 Inhibitor I 0.002 | ibrutinib 0.007 | [9] -0.017 | ralimetinib 0.017 | [10] -0.017 | [11] 0.009 | [12] -0.001 | [13] 0.018 | [14] -0.016 | [15] 0.003 | [16] -0.007

Taken from the listing (2 entries):
HAT1 (UniProt O14929)
inactive: erlotinib 0.016 | [1] 0.001 | [2] 0.031 | [3] 0 | [4] -0.028 | [5] 0.004 | [6] -0.003 | [7] -0.023 | [8] 0.036 | IRAK-1-4 Inhibitor I 0.017 | ibrutinib -0.005 | [9] -0.015 | ralimetinib 0.021 | [10] -0.009 | [11] 0.005 | [12] 0.007 | [13] -0.004 | [14] 0.022 | [15] 0.014 | [16] -0.028

H4C1 (UniProt P62805)
inactive: erlotinib 0.065 | [1] 0.499 | [2] -0.023 | [3] -0.042 | [4] -0.024 | [5] 0.252 | [6] -0.008 | [7] 0.067 | [8] -0.052 | IRAK-1-4 Inhibitor I -0.067 | ibrutinib 0.055 | [9] -0.008 | ralimetinib -0.078 | [10] -0.037 | [11] -0.046 | [12] 0.075 | [13] -0.082 | [14] 0.011 | [15] -0.022 | [16] 0.008
